This note sets out measurements from PMC4760308.

In one assay the target is HA-HDAC1 (Xenopus). As to the kind of experiment: co-IP; 293T cell lysate overexpressing 6MT-ASCL1 or HA-HDAC1 constructs; precipitation with anti-HA, western blot with anti-MT.
Assay [1] deals with HDAC1 of the tag-swap co-IP (Xenopus). As to the kind of experiment: co-IP; tag-swap experiment; precipitation with anti-Myc antibodies (Fig. S6F).
The target of assay [2] is HA-ASCL1-ΔC (not stated (human or Xenopus cDNA cloned)) (UniProt P50553). Briefly: co-IP; anti-HA immunocomplexes of HA-ASCL1-ΔC, western blots with anti-Myc-tag or anti-HA antibodies (Fig. 7C,E). (In general: A western blot detects proteins with antibodies after separation by electrophoresis.)

These are yes or no findings as the source states them, for the method shown. Binding seen in cells or lysates may run through a third protein. Binding calls can cover weak binding; strength is not graded here. For part of these data: Sequences can lack the tags named with a protein.

B1: 6MT-ASCL1-WT (protein, UniProt P50553 1-236)
chain: MESSAKMESGGAGQQPQPQPQQPFLPPAACFFATAAAAAAAAAAAAAQSAQQQQQQQQQQQQAPQLRPAADGQPSGGGHKSAPKQVKRQRSSSPELMRCKRRLNFSGFGYSLPQQQPAAVARRNERERNRVKLVNLGFATLREHVPNGAANKKMSKVETLRSAVEYIRALQQLLDEHDAVSAAFQAGVLSPTISPNYSNDLNSMAGSPVSSYSSDEGSYDPLSPEEQELLDFTNWF
In the case of B1, the binding entry with HA-HDAC1 (Xenopus) was “binds”.

B2: ASCL1-WT of the tag-swap co-IP (protein, UniProt P50553 1-236)
chain: B1 chain
In the case of B2, the binding result in assay [1] is “binds”.

B3: MT-VegT (protein, UniProt P87377 1-455)
chain: MRNCCRECGLSAGHLEPEASSNCASDVKSSPDMDSVSSQDSLYLPNTVGASLEDQDLWSQFHQEGTEMIITKSGRRMFPQCKIRLFGLHPYAKYMLLVDFVPLDNFRYKWNKNQWEAAGKAEPHPPCRTYVHPDSPAPGAHWMKDPICFQKLKLTNNTLDQQGHIILHSMHRYKPRFHVVQSDDMYNSPWGLVQVFSFPETEFTSVTAYQNEKITKLKINHNPFAKGFREQERSHKRDDVLKILQQSPSKRQKRKKWEDSPEADISDFPKAICVKEESIMDPAGVYQNWVSDHEANQGLTPHSPESEGANQEQQVPTSSSNFYNKSHYRRSSQHLSSPFELGEPSSRRLTPDIATVPDSDPDSLAVFHVIPTQNSAPERTCSMNFSMEAPMKQPLRGAMYSPYGADQWLVPAQGQYRPVGYTAYPTDLSTQGAVAHPHSAMSDWSQYSLFPYSCW
For B3, the binding entry in assay [2] was “binds”.
